Reference: the supplement of paper PMC10849652
Some of the results follow.

Protein sequences, listed by entry. Tags and fused reporters are not part of them. Lines headed by an entry give the natural chain unless they say otherwise; changes in a name come on top.
UniProt Q86XT9, whole entry, looked up: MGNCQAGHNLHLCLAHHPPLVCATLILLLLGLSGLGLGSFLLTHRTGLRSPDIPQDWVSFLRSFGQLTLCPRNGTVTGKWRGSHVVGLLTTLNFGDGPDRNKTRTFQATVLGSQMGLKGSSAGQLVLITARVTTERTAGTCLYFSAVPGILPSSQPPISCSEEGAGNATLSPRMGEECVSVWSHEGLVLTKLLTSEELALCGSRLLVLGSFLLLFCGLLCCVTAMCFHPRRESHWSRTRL
UniProt Q03169: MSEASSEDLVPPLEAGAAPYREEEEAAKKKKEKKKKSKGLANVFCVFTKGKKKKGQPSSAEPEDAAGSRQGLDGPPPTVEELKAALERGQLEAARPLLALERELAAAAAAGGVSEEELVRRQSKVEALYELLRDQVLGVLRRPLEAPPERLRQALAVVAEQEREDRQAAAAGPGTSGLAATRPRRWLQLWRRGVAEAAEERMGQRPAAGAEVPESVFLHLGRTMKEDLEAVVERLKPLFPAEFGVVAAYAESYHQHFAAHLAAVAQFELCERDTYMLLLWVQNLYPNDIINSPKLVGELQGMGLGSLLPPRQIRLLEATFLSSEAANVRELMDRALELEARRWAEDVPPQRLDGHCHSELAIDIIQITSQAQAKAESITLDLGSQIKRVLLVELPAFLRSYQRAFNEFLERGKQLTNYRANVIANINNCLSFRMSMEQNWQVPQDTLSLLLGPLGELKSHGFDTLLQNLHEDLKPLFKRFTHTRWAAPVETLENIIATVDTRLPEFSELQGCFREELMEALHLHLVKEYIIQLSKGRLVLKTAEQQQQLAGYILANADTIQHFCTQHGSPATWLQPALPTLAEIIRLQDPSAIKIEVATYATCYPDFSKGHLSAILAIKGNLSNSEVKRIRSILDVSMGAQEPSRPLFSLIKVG
UniProt Q02880: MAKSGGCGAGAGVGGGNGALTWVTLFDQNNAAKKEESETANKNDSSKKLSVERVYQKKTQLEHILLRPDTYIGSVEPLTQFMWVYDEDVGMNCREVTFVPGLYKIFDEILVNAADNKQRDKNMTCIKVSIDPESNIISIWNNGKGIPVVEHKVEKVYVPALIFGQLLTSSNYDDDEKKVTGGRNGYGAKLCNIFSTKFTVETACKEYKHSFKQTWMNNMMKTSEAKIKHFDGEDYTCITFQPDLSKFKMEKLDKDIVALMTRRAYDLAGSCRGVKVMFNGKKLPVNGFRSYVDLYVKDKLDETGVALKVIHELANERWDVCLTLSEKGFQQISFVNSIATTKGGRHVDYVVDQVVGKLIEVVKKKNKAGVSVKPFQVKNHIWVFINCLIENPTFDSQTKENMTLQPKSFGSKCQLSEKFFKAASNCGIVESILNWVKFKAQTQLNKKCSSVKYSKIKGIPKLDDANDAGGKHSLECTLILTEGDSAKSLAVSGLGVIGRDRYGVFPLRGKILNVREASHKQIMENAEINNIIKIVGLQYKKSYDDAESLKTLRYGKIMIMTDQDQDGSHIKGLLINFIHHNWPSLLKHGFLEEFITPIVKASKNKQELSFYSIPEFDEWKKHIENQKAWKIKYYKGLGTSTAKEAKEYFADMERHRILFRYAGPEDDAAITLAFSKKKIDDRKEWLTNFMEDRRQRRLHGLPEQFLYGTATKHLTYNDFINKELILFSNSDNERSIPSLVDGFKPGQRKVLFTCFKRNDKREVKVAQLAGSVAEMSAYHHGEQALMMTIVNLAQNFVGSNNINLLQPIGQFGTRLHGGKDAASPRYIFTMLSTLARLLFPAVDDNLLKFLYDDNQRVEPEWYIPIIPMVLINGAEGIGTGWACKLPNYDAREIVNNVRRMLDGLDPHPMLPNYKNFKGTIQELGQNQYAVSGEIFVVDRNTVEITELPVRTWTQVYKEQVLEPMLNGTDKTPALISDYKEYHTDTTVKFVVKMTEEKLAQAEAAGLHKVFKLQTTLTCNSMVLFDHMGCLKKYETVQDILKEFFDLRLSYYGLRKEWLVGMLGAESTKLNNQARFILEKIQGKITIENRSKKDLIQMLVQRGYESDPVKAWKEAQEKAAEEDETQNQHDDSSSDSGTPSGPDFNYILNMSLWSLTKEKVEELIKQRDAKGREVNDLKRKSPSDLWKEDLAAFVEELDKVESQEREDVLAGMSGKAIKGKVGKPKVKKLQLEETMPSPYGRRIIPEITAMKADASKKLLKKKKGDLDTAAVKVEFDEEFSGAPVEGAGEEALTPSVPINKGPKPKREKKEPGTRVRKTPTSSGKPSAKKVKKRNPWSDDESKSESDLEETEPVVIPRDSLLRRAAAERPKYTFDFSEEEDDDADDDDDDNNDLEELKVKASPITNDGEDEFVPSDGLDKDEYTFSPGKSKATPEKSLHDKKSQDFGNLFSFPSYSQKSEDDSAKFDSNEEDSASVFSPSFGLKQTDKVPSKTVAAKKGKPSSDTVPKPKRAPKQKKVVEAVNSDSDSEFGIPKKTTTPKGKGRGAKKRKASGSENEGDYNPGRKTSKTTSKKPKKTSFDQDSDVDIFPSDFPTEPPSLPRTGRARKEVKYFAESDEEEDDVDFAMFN
UniProt P51580: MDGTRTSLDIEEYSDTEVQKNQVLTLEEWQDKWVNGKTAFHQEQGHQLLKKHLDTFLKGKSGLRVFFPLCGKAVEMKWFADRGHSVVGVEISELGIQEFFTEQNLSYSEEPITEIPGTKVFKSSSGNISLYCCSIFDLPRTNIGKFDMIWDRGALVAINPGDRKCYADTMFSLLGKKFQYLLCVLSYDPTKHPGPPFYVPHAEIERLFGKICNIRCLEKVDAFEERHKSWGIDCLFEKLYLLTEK
UniProt Q6PI78: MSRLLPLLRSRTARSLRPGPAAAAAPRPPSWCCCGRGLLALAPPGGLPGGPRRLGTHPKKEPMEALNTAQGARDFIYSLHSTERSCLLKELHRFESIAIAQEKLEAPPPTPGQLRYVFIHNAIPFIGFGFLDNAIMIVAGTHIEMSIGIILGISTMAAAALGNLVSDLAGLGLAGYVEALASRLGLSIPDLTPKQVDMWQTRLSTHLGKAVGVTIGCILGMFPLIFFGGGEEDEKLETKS
UniProt Q9P0U1: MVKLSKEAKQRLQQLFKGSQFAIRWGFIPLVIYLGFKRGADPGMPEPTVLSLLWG
UniProt Q9ULW0, whole entry, looked up: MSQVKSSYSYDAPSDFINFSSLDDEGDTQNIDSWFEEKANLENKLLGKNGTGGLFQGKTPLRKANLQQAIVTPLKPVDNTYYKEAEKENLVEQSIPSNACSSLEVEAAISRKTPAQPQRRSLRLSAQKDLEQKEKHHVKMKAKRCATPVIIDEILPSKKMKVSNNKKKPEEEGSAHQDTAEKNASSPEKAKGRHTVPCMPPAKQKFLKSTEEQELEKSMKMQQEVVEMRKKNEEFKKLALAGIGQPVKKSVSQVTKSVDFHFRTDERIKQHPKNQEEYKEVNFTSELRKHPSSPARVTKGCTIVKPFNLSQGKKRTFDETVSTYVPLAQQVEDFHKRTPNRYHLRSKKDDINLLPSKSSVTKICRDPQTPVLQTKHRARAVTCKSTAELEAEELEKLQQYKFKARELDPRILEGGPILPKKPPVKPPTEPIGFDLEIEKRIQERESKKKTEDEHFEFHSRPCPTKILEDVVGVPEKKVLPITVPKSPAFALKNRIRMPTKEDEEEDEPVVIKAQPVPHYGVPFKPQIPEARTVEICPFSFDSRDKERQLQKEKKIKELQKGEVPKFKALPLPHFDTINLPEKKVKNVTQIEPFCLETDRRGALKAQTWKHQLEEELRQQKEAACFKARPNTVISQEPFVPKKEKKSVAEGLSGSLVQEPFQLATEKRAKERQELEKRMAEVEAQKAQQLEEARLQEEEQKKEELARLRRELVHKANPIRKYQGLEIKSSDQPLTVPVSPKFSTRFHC
UniProt Q9NV96: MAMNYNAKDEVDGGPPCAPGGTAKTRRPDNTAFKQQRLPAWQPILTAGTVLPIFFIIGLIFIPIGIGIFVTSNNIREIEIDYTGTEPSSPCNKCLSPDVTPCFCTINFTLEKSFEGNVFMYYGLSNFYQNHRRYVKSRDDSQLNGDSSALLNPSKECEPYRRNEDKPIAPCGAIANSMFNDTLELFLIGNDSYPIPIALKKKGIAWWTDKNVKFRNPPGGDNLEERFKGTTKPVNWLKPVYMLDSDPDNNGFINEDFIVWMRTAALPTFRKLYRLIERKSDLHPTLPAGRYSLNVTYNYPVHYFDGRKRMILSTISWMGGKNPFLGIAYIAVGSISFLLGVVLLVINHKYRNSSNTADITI
UniProt P11388: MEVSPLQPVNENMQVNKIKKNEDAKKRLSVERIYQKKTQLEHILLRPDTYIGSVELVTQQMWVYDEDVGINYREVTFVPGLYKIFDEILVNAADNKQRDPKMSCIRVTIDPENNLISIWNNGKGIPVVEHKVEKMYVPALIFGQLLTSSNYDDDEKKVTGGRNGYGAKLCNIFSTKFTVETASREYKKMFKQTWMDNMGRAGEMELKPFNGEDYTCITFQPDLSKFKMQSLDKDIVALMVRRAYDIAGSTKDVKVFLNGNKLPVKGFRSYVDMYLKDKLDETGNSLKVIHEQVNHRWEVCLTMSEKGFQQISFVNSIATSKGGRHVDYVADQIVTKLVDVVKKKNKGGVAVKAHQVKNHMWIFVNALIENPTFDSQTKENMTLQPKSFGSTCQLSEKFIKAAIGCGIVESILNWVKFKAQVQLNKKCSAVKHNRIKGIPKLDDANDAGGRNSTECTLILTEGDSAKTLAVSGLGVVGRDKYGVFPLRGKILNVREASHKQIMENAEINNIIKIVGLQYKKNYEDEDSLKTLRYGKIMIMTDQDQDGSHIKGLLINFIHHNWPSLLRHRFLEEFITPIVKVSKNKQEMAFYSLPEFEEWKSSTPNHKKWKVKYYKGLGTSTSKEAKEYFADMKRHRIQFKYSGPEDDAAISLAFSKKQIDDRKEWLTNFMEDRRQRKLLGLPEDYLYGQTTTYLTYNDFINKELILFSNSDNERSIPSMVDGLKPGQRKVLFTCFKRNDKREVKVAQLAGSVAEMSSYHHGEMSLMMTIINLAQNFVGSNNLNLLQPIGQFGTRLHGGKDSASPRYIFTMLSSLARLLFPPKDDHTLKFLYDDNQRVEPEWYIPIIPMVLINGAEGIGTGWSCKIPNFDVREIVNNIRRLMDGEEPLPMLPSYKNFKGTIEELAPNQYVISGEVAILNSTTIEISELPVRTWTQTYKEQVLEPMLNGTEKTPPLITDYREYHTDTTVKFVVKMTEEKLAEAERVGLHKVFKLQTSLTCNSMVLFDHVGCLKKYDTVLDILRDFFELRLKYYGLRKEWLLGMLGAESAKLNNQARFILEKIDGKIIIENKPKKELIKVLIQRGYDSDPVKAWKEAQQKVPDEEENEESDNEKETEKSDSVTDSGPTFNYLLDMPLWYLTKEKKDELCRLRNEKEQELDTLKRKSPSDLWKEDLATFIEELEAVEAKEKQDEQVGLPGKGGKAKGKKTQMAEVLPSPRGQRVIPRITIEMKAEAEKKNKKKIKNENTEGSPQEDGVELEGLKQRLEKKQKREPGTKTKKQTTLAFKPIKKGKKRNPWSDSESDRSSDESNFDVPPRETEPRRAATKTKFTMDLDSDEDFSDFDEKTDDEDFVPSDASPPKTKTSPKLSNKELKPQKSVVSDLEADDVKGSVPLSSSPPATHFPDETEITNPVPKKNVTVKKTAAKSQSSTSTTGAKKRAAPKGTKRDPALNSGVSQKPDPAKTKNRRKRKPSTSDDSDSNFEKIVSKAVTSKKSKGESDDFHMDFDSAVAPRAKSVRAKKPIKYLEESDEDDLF
UniProt Q96K49: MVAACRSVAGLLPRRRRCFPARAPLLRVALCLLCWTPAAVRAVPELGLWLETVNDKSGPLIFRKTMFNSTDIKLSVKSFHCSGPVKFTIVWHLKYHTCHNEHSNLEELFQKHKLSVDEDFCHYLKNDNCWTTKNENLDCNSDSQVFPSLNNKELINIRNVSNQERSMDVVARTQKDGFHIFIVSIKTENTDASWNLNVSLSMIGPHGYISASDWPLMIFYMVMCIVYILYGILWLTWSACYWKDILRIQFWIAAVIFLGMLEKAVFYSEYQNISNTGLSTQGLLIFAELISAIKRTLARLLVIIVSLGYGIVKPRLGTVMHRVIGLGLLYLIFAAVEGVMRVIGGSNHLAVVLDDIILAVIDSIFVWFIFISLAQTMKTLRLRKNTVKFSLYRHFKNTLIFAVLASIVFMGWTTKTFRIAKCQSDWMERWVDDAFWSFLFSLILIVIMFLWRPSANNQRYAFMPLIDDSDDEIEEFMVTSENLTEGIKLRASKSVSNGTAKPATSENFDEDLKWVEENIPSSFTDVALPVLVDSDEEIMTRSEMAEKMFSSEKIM
UniProt O14656: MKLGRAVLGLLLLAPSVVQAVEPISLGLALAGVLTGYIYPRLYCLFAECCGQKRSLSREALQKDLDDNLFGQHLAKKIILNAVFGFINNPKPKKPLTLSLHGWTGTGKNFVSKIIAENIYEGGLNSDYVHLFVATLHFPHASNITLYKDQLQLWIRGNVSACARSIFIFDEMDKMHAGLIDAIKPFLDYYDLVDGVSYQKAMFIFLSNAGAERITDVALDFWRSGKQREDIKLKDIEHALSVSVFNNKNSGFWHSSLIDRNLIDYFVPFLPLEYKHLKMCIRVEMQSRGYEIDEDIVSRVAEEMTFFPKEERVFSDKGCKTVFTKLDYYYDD

Columns and labels:
Assay in all cases: log2 fold change, soluble protein after heating vs DMSO (PISA); higher = thermal stabilisation; K562 lysate, 10 uM; active = over 0.2 and 3.5 SD of the protein, either way, in both replicates (recomputed)
lapatinib = compound: CS(=O)(=O)CCNCc1ccc(-c2ccc3ncnc(Nc4ccc(OCc5cccc(F)c5)c(Cl)c4)c3c2)o1 [lapatinib]
Summary of the method: (§1)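 Log-two fold change in thermal stability relative to solvent controls is reported from duplicates. For each sample, crude K562 extract from dounce-homogenised pellets in PBS pH 7.4 with 1 mM MgCl2, at 1 mg/mL protein, was treated with 10 μM compound for 30 min. Aliquots heated for 3 min across 48°C-58°C were pooled, brought to 0.5% NP-40 at 4°C and cleared at 21,000xg for 90 min. The supernatant was quantified by TMTpro 16plex LC-MS/MS with channel sums equalised.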

pictilisib = compound: CS(=O)(=O)N1CCN(Cc2cc3nc(-c4cccc5[nH]ncc45)nc(N4CCOCC4)c3s2)CC1 [pictilisib]
Summary of the method: as §1

crizotinib = compound: C[C@@H](Oc1cc(-c2cnn(C3CCNCC3)c2)cnc1N)c1c(Cl)ccc(F)c1Cl [crizotinib]
Summary of the method: as §1

[1] = compound: C[C@H](C1=CC=C(C=C1)C(=O)NC2=C3C=CNC3=NC=C2)N
Summary of the method: as §1

duvelisib = compound: C[C@H](Nc1ncnc2nc[nH]c12)c1cc2cccc(Cl)c2c(=O)n1-c1ccccc1 [duvelisib]
Summary of the method: as §1

gandotinib = compound: Cc1cc(Nc2cc(CN3CCOCC3)c3nc(C)c(Cc4ccc(Cl)cc4F)n3n2)n[nH]1 [gandotinib]
Summary of the method: as §1

tozasertib = compound: Cc1cc(Nc2cc(N3CCN(C)CC3)nc(Sc3ccc(NC(=O)C4CC4)cc3)n2)n[nH]1 [tozasertib]
Summary of the method: as §1

doramapimod = compound: Cc1ccc(-n2nc(C(C)(C)C)cc2NC(=O)Nc2ccc(OCCN3CCOCC3)c3ccccc23)cc1 [doramapimod]
Summary of the method: as §1

bafetinib = compound: Cc1ccc(NC(=O)c2ccc(CN3CC[C@H](N(C)C)C3)c(C(F)(F)F)c2)cc1Nc1nccc(-c2cncnc2)n1 [bafetinib]
Summary of the method: as §1

[2] = compound: Cc1cccc(CC(=O)N2CCc3c2ccc(-c2cn(C)c4ncnc(N)c24)c3F)n1
Summary of the method: as §1

Measured: log2 fold change

TMEM38B (UniProt Q9NVV0)
inactive: lapatinib -0.016 | pictilisib -0.023 | crizotinib -0.019 | [1] -0.217 | duvelisib 0.024 | gandotinib 0.159 | tozasertib -0.012 | doramapimod -0.043 | bafetinib 0.045 | [2] 0.167

TMEM219 (UniProt Q86XT9)
inactive: lapatinib 0.043 | pictilisib -0.027 | crizotinib -0.024 | [1] -0.092 | duvelisib -0.037 | gandotinib 0.014 | tozasertib 0.035 | doramapimod 0.004 | bafetinib -0.047 | [2] 0.002

TOE1 (UniProt Q96GM8)
inactive: lapatinib 0.002 | pictilisib -0.057 | crizotinib 0.003 | [1] -0.023 | duvelisib 0.052 | gandotinib -0.016 | tozasertib 0.059 | doramapimod -0.04 | bafetinib 0.047 | [2] 0.059

TMUB1 (UniProt Q9BVT8)
inactive: lapatinib 0.019 | pictilisib -0.051 | crizotinib -0.085 | [1] 0.089 | duvelisib -0.112 | gandotinib -0.143 | tozasertib -0.186 | doramapimod -0.004 | bafetinib -0.016 | [2] -0.028

TMEM9B (UniProt Q9NQ34)
inactive: lapatinib -0.035 | pictilisib -0.045 | crizotinib -0.148 | [1] 0.074 | duvelisib 0.116 | gandotinib -0.098 | tozasertib 0.03 | doramapimod 0.107 | bafetinib 0.004 | [2] -0.082

TPM1 (UniProt H7BYY1)
inactive: lapatinib 0.028 | pictilisib 0.042 | crizotinib 0.096 | [1] 0.063 | duvelisib -0.004 | gandotinib -0.118 | tozasertib 0.012 | doramapimod -0.025 | bafetinib 0.026 | [2] -0.158

TNFAIP2 (UniProt Q03169)
inactive: lapatinib -0.079 | pictilisib -0.053 | crizotinib -0.094 | [1] -0.206 | duvelisib 0.002 | gandotinib 0.267 | tozasertib 0.005 | doramapimod 0.001 | bafetinib -0.093 | [2] 0.281

TP53BP1 isoform 2 (UniProt Q12888)
inactive: lapatinib 0 | pictilisib -0.003 | crizotinib 0.013 | [1] 0.002 | duvelisib 0.009 | gandotinib 0.002 | tozasertib 0.021 | doramapimod -0.016 | bafetinib -0.018 | [2] 0.011

TOP2B isoform 2 (UniProt Q02880)
inactive: lapatinib -0.02 | pictilisib -0.023 | crizotinib -0.027 | [1] 0.177 | duvelisib -0.027 | gandotinib -0.101 | tozasertib 0 | doramapimod 0.005 | bafetinib -0.025 | [2] -0.071

TPMT (UniProt P51580)
inactive: lapatinib 0.036 | pictilisib -0.012 | crizotinib 0.057 | [1] -0.01 | duvelisib -0.001 | gandotinib -0.048 | tozasertib -0.038 | doramapimod -0.012 | bafetinib 0.118 | [2] -0.011

TPD52L1 (UniProt Q16890)
inactive: lapatinib 0.017 | pictilisib -0.048 | crizotinib 0.111 | [1] 0.022 | duvelisib -0.01 | gandotinib 0.184 | tozasertib -0.05 | doramapimod -0.006 | bafetinib 0.035 | [2] -0.13

TMEM65 (UniProt Q6PI78)
inactive: lapatinib 0.078 | pictilisib 0.009 | crizotinib -0.028 | [1] 0.006 | duvelisib 0.022 | gandotinib -0.053 | tozasertib -0.007 | doramapimod 0.012 | bafetinib 0.086 | [2] -0.032

TONSL (UniProt Q96HA7)
inactive: lapatinib -0.048 | pictilisib -0.115 | crizotinib -0.038 | [1] -0.063 | duvelisib 0.076 | gandotinib -0.064 | tozasertib -0.035 | doramapimod 0.057 | bafetinib -0.035 | [2] -0.007

TOMM7 (UniProt Q9P0U1)
inactive: lapatinib 0.017 | pictilisib -0.009 | crizotinib -0.17 | [1] -0.008 | duvelisib -0.006 | gandotinib 0.076 | tozasertib 0.08 | doramapimod 0.051 | bafetinib -0.067 | [2] 0.094

TPX2 (UniProt Q9ULW0)
inactive: lapatinib 0.008 | pictilisib 0.032 | crizotinib 0.023 | [1] 0.01 | duvelisib 0.002 | gandotinib 0.04 | tozasertib -0.003 | doramapimod 0.049 | bafetinib -0.023 | [2] -0.011

TPM3 (UniProt P06753)
inactive: lapatinib 0.014 | pictilisib 0.005 | crizotinib 0.022 | [1] 0.123 | duvelisib 0.009 | gandotinib -0.039 | tozasertib -0.003 | doramapimod -0.022 | bafetinib 0.052 | [2] -0.088

Two records picked at random from the list so far, as already listed:
TONSL (UniProt Q96HA7)
inactive: lapatinib -0.048 | pictilisib -0.115 | crizotinib -0.038 | [1] -0.063 | duvelisib 0.076 | gandotinib -0.064 | tozasertib -0.035 | doramapimod 0.057 | bafetinib -0.035 | [2] -0.007

TPM3 (UniProt P06753)
inactive: lapatinib 0.014 | pictilisib 0.005 | crizotinib 0.022 | [1] 0.123 | duvelisib 0.009 | gandotinib -0.039 | tozasertib -0.003 | doramapimod -0.022 | bafetinib 0.052 | [2] -0.088

Next part

TOM1L2 (UniProt Q6ZVM7)
inactive: lapatinib 0.067 | pictilisib -0.089 | crizotinib 0.022 | [1] 0.003 | duvelisib -0.018 | gandotinib 0.057 | tozasertib 0.048 | doramapimod 0.015 | bafetinib -0.071 | [2] 0.013

TRA2B (UniProt P62995)
inactive: lapatinib -0.013 | pictilisib 0.01 | crizotinib -0.098 | [1] 0.049 | duvelisib 0.209 | gandotinib -0.005 | tozasertib 0.006 | doramapimod 0.063 | bafetinib -0.049 | [2] -0.009

TMEM245 (UniProt Q9H330)
inactive: lapatinib -0.011 | pictilisib -0.006 | crizotinib -0.018 | [1] -0.059 | duvelisib -0.032 | gandotinib 0.018 | tozasertib 0.047 | doramapimod -0.033 | bafetinib -0.008 | [2] 0.03

TMEM30A (UniProt Q9NV96)
inactive: lapatinib 0 | pictilisib 0.029 | crizotinib 0.005 | [1] -0.013 | duvelisib -0.203 | gandotinib 0.013 | tozasertib 0.008 | doramapimod 0.022 | bafetinib 0.118 | [2] -0.013

TOLLIP (UniProt Q9H0E2)
inactive: lapatinib -0.018 | pictilisib 0.003 | crizotinib -0.059 | [1] -0.024 | duvelisib 0.003 | gandotinib 0.08 | tozasertib 0.037 | doramapimod 0.193 | bafetinib -0.04 | [2] 0.007

TNFAIP3 (UniProt P21580)
inactive: lapatinib -0.032 | pictilisib 0.052 | crizotinib -0.013 | [1] 0.032 | duvelisib 0.038 | gandotinib -0.075 | tozasertib 0.744 | doramapimod 0.084 | bafetinib -0.02 | [2] -0.023

TOP2A isoform 4 (UniProt P11388)
inactive: lapatinib -0.025 | pictilisib 0 | crizotinib -0.03 | [1] -0.118 | duvelisib -0.012 | gandotinib 0.031 | tozasertib -0.034 | doramapimod 0.009 | bafetinib -0.056 | [2] 0.148

TPR (UniProt P12270)
inactive: lapatinib -0.008 | pictilisib 0.003 | crizotinib 0.028 | [1] 0.056 | duvelisib -0.004 | gandotinib -0.009 | tozasertib -0.012 | doramapimod -0.013 | bafetinib 0.005 | [2] -0.05

TMEM87B (UniProt Q96K49)
inactive: lapatinib -0.044 | pictilisib 0.147 | crizotinib -0.017 | [1] 0.004 | duvelisib 0.039 | gandotinib -0.077 | tozasertib 0.068 | doramapimod 0.026 | bafetinib 0.126 | [2] 0

TOR1A (UniProt O14656)
inactive: lapatinib -0.01 | pictilisib -0.032 | crizotinib 0.011 | [1] 0.013 | duvelisib -0.011 | gandotinib 0.02 | tozasertib -0.007 | doramapimod -0.014 | bafetinib -0.029 | [2] 0.013

TOP3B (UniProt O95985)
inactive: lapatinib -0.018 | pictilisib -0.018 | crizotinib -0.004 | [1] -0.025 | duvelisib 0.005 | gandotinib -0.022 | tozasertib -0.046 | doramapimod 0.006 | bafetinib -0.016 | [2] 0.033

TMEM223 (UniProt A0PJW6)
inactive: lapatinib -0.008 | pictilisib 0.073 | crizotinib 0.074 | [1] -0.078 | duvelisib -0.04 | gandotinib 0.091 | tozasertib 0.055 | doramapimod 0.303 | bafetinib -0.132 | [2] 0.044

TMPO (UniProt P42166)
inactive: lapatinib 0.018 | pictilisib -0.012 | crizotinib 0.016 | [1] -0.179 | duvelisib 0.023 | gandotinib -0.048 | tozasertib 0.016 | doramapimod -0.017 | bafetinib -0.021 | [2] 0.034
